Measurements reported in PubChem BioAssay AID504764 (Drosophila RNAi Screening Center, 2011).

- Assay: 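Genes whose knock-down alters Notch-dependent transcription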 (primary screen)
- System: Drosophila Kc167 cells
- Reagents: long dsRNA against Drosophila genes
- Time to read-out: about 5 days (4 days dsRNA, then 24 h after transfection)
- Challenge: transfection of constitutively active membrane-tethered Notch lacking the extracellular domain, read 24 h later
- Measurement: 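Light from a Notch-responsive E(spl)m3 luciferase reporter under active Notch, with control-promoter and no-Notch reporter wells to normalise; raw counts from paired wells a and b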
- Reading the numbers: induced reporter light, run 1, well a and induced reporter light, run 1, well b: higher = more light from the Notch target reporter with active Notch; control promoter light, run 1, well a and control promoter light, run 1, well b: higher = more light from the viral control promoter (cell number, transfection, viability); uninduced reporter light, run 1, well a: higher = more light from the Notch target reporter without active Notch
- Rule for the call: 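Wells with low control signal or poorly matching duplicates excluded; duplicates averaged; per source plate, z beyond ±2 for induced/control log2 ratio or beyond ±1.8 for induced/uninduced marks a hit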
- Calls: active = modifier hit (raised or lowered Notch signal); inactive = not a hit
In all, the deposit lists about 22,000 reagents; shown is a random part of those that have a named target and a result. In the full data, 403 (1.9%) got an active call. 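Unnormalised raw counts per well; ratio z-scores behind the hit calls and whether each hit raises or lowers signal are not deposited.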 Unmarked entries are inactive. The numbers tell different reagents against one gene apart. A plus sign joins genes that one reagent is predicted to hit. The record does not give: the amount of reagent.

predicted target	dsRNA no.	induced reporter light, run 1, well a	induced reporter light, run 1, well b	control promoter light, run 1, well a	control promoter light, run 1, well b	uninduced reporter light, run 1, well a
cad	1	33360	33740	6875	7370	6688
CG13659	1	1.15e5	1.17e5	1.78e5	1.74e5	13260
alien + CG17906	1	1.30e5	1.58e5	70650	97315	18960
CG14903	1	2.89e5	2.38e5	2.37e5	2.53e5	19990
Reps	1	1.25e5	1.46e5	69675	81590	18810
mtt	1	31060	48600	39740	39230	3265
mtt	2	1.12e5	1.09e5	1.17e5	1.06e5	6325
mtt	3	1.82e5	1.71e5	2.21e5	2.33e5	17830
mtt	4	2.06e5	1.67e5	2.62e5	2.01e5	15895
Sdc	1	51945	51000	37305	24045	2195
CG34200	1	82095	97450	1.31e5	1.18e5	4190
Edem2	1	1.84e5	1.83e5	1.68e5	2.08e5	18440
CG34404	1	1.80e5	1.83e5	1.62e5	1.75e5	16265
CG34404	2	1.66e5	1.41e5	1.31e5	1.39e5	12765
CG8292	1	1.88e5	1.88e5	1.06e5	1.31e5	23585
CG15877	1	1.01e5	1.18e5	1.59e5	1.61e5	5635
CG13315	1	2.10e5	2.21e5	2.85e5	2.70e5	11635
Yod1	1	1.65e5	1.59e5	1.41e5	1.05e5	14810
GluRIIA	1	1.57e5	1.24e5	1.71e5	1.80e5	9090
CG1394	1	40830	41355	97080	79990	6615

Ordered by “control promoter light, run 1, well a” (high to low): some entries from above.
predicted target	dsRNA no.	induced reporter light, run 1, well a	induced reporter light, run 1, well b	control promoter light, run 1, well a	control promoter light, run 1, well b	uninduced reporter light, run 1, well a
mtt	4	2.06e5	1.67e5	2.62e5	2.01e5	15895
Sdc	1	51945	51000	37305	24045	2195
